PubChem BioAssay AID1259424, University of Nebraska Medical Center – 2018
Assay: 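Seek colon cancer survival genes behaving like KSR1, using a six-gene signature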 (primary screen). Cells: human HCT116 colon cancer cells. Reagents: siRNA pool against human genes, 50 nM. Read-out: 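Six signature mRNAs by branched-DNA multiplex assay, scaled to two housekeeping genes and non-targeting median, log2; matched to mean KSR1 knockdown profile by Pearson correlation and euclidean distance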. Scale: mean correlation with KSR1 profile and KSR1 correlation: higher = expression change more like KSR1 knockdown; mean distance from KSR1 profile: higher = expression change less like KSR1 knockdown.
Shown is a random part of about 14,000 reagents. 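Higher correlation or smaller distance means closer resemblance to KSR1 loss; control wells, including KSR1 knockdowns, recur on many plates.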 Reagents against one gene are numbered here. Some reagents were tested in more than one well and are listed for each. Not all columns of the deposit are shown. The record does not give: the time to read-out.

| gene symbol | reagent no. | mean correlation with KSR1 profile | mean distance from KSR1 profile | KSR1 correlation, replicate 1 | KSR1 correlation, replicate 2 |
| --- | --- | --- | --- | --- | --- |
| RAB32 | 1 | 0.505 | 1.88 | 0.409 | 0.572 |
| TMOD1 | 1 | -0.0509 | 1.42 | 0.00946 | -0.41 |
| TMEM120A | 1 | 0.677 | 2.55 | 0.474 | 0.743 |
| NPHP1 | 1 | -0.472 | 2.87 | -0.402 | -0.505 |
| PFDN5 | 1 | -0.135 | 3.23 | -0.19 | 0.246 |
| FBXO28 | 1 | 0.364 | 2.63 | 0.321 | 0.334 |
| ING3 | 1 | 0.00759 | 2.64 | 0.111 | 0.0419 |
| KIF26B | 1 | -0.588 | 5.97 | -0.149 | -0.64 |
| CNOT6L | 1 | -0.137 | 2.33 | -0.0328 | -0.162 |
| BRCC3 | 1 | 0.173 | 2.2 | 0.313 | 0.0385 |
| SNU13 | 1 | 0.164 | 3.87 | 0.19 | 0.0898 |
| ANP32D | 1 | -0.476 | 3.05 | -0.443 | -0.449 |
| BCKDK | 1 | -0.0262 | 4.23 | 0.112 | 0.149 |
| MAN1A1 | 1 | 0.0883 | 1.26 | -0.165 | 0.0769 |
| MDC1 | 1 | -0.372 | 2.84 | -0.271 | -0.612 |
| HOXB7 | 1 | -0.418 | 3.51 | -0.00412 | -0.436 |
| KMT2B | 1 | -0.429 | 2.72 | -0.165 | -0.0276 |
| TEFM | 1 | 0.582 | 1.92 | 0.628 | 0.792 |
| H2AC12 | 1 | 0.277 | 2.62 | 0.335 | 0.305 |
| RTF2 | 1 | -0.502 | 1.88 | -0.397 | -0.532 |
| AP3S1 | 1 | -0.288 | 2.64 | -0.344 | -0.3 |
| SNX15 | 1 | 0.707 | 0.844 | 0.613 | 0.426 |
| OR1A2 | 1 | 0.346 | 2.05 | 0.651 | 0.0482 |
| MCTS1 | 1 | -0.198 | 1.88 | -0.458 | -0.117 |
| GPR119 | 1 | 0.523 | 2.18 | 0.504 | 0.435 |
| GPR119 | 1 | 0.432 | 2.4 | 0.382 | 0.573 |
| ZNF112 | 1 | -0.489 | 2.71 | -0.484 | -0.321 |
| PDCD5 | 1 | -0.118 | 3.33 | -0.0733 | -0.179 |
| DMAP1 | 1 | -0.0535 | 5.88 | -0.017 | -0.196 |
| VAC14 | 1 | -0.00327 | 8.3 | 0.0862 | -0.0404 |
| VAC14 | 2 | 0.447 | 2.65 | 0.464 | 0.471 |
| KLRA1P | 1 | 0.485 | 1.03 | 0.674 | 0.437 |
| MATR3 | 1 | -0.389 | 2.47 | -0.417 | -0.351 |
| H2BC3 | 1 | -0.0537 | 2.93 | -0.296 | -0.109 |
| HSD17B14 | 1 | -0.431 | 3.94 | -0.397 | -0.347 |
| DDX21 | 1 | -0.184 | 2.94 | -0.0941 | -0.148 |
| MAN2B1 | 1 | 0.0129 | 1.68 | -0.263 | 0.233 |
| WDR4 | 1 | -0.656 | 6.06 | -0.783 | -0.558 |
| PLEKHF1 | 1 | 0.16 | 2.58 | 0.0501 | 0.103 |
| POLR1D | 1 | 0.674 | 1.25 | 0.749 | 0.546 |
| MYOF | 1 | 0 | 1.84 | -0.349 | -0.375 |
| KIF12 | 1 | 0.107 | 3.56 | 0.0922 | 0.0933 |
| SACK1D | 1 | 0.196 | 2.12 | 0.0438 | 0.131 |
| TPPP3 | 1 | -0.217 | 7.85 | -0.0933 | 0.0236 |
| RAB40A | 1 | 0.516 | 1.32 | 0.407 | 0.86 |
| CTSB | 1 | 0.168 | 2.09 | -0.0156 | 0.0593 |
| CCL23 | 1 | 0.415 | 1.93 | 0.455 | 0.466 |
| UBFD1 | 1 | -0.111 | 1.94 | 0.0144 | -0.246 |
| LINC03124 | 1 | -0.151 | 1.82 | -0.163 | -0.268 |
| CHD2 | 1 | -0.612 | 1.68 | -0.73 | -0.53 |

Only “mean distance from KSR1 profile” (8 entries from above):
PLEKHF1: 2.58
POLR1D: 1.25
MYOF: 1.84
KIF12: 3.56
SACK1D: 2.12
TPPP3: 7.85
RAB40A: 1.32
CTSB: 2.09
